Assay results reported in publication doi:10.1101/2020.02.11.944470.
No constants are given. Whether binding was seen depends on the method and setting. Binding seen in cells or lysates may run through a third protein. These calls come from enrichment with a bait or labelling near it, and not all partners need be listed. Values belong to the binder of their own block, whether it stands above or below them.

Target: BirA*-Casz1v2 (mouse)
Assay: proximity labelling

- binding: binds
B1: Hmgb2 (protein, UniProt P30681 1-210)
chain: MGKGDPNKPRGKMSSYAFFVQTCREEHKKKHPDSSVNFAEFSKKCSERWKTMSAKEKSKFEDLAKSDKARYDREMKNYVPPKGDKKGKKKDPNAPKRPPSAFFLFCSENRPKIKIEHPGLSIGDTAKKLGEMWSEQSAKDKQPYEQKAAKLKEKYEKDIAAYRAKGKSEAGKKGPGRPTGSKKKNEPEDEEEEEEEEEEEDDEEEEEDEE

- binding: binds
B2: Hmgb3 (protein, UniProt O54879 1-200)
chain: MAKGDPKKPKGKMSAYAFFVQTCREEHKKKNPEVPVNFAEFSKKCSERWKTMSSKEKSKFDEMAKADKVRYDREMKDYGPAKGGKKKKDPNAPKRPPSGFFLFCSEFRPKIKSTNPGISIGDVAKKLGEMWNNLSDNEKQPYVTKAAKLKEKYEKDVADYKSKGKFDGAKGPAKVARKKVEEEEEEEEEEEEEEEEEEDE
